Holding throughout (experiment): DAPPL (digital affinity profiling via proximity ligation, sequencing)
What all share (conditions): 10 mM Tris-HCl pH 7.5, 50 mM NaCl, 1 mM DTT, 4% glycerol, room temperature, 30 min; GST-TFs on glutathione beads, 16-mer random dsDNA library, 0.1% …; high values mean tight binding; double strand, one strand shown; scale: fold enrichment (6-mer frequency, TF over GST control)

Chains of the proteins cited; added tags and fusions are not shown. Lines headed by an entry give the natural chain unless they say otherwise; changes in a name come on top.
UniProt Q01892: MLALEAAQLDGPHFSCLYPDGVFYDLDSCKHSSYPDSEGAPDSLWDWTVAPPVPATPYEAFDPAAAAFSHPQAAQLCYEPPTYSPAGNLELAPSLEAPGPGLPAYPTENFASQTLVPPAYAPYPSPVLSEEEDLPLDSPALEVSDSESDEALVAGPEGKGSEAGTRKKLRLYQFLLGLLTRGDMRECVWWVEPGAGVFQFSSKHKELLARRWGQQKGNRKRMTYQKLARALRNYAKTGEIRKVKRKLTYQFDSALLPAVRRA
UniProt P41161: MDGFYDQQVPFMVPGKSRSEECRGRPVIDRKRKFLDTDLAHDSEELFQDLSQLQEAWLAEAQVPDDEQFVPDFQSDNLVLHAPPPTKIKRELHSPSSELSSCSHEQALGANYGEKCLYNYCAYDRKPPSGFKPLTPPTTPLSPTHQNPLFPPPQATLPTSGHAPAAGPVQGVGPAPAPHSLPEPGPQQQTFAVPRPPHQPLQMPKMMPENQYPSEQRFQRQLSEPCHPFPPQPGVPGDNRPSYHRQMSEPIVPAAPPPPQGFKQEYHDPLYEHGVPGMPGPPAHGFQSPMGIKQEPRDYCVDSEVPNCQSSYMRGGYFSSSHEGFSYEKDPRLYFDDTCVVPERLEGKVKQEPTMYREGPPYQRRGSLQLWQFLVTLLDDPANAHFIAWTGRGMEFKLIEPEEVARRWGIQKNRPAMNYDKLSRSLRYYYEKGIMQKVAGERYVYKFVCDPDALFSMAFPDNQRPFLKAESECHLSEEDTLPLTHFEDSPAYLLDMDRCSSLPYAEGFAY
UniProt Q99607: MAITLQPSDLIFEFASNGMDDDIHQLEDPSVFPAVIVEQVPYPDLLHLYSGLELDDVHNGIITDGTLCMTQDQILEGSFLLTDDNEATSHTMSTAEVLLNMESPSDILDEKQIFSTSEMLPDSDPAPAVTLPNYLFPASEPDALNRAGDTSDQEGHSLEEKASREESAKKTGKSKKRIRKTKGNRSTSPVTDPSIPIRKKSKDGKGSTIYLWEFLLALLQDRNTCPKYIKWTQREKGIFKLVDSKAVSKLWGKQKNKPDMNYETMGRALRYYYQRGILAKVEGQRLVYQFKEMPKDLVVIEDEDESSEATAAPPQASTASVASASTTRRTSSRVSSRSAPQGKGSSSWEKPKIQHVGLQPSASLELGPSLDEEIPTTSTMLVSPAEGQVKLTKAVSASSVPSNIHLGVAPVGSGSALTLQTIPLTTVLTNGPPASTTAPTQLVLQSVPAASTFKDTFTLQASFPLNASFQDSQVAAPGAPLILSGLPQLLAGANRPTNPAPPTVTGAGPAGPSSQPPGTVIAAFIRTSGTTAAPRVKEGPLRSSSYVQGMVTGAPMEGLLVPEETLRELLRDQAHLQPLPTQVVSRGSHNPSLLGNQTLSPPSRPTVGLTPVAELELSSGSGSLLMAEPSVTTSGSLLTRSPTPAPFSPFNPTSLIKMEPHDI

In test [1] the target is T1, FLI1 (UniProt Q01543).
T1 sequence: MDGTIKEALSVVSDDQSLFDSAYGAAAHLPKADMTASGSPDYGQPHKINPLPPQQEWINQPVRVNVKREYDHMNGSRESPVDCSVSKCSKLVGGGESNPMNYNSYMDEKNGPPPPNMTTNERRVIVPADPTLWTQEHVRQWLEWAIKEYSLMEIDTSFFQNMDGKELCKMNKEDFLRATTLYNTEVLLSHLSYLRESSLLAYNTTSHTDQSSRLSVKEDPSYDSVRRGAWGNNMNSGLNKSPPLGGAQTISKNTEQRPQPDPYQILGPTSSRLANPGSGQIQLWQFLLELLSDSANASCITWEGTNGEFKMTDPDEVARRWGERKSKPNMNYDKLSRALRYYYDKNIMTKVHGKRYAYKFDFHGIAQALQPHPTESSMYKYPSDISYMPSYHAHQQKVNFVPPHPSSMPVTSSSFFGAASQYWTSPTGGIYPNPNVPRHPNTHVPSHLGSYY

Test [2] deals with T2, EHF (UniProt Q9NZC4).
T2 sequence: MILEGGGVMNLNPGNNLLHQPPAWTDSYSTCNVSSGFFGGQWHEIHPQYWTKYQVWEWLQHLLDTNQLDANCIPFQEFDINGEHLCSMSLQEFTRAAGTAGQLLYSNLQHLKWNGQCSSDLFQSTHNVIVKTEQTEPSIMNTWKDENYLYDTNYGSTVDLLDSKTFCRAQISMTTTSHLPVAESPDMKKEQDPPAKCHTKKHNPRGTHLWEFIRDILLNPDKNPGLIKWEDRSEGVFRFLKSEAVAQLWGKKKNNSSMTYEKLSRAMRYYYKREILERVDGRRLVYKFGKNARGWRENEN

Test [3] concerns the target SPIB (UniProt Q01892).
In test [4] the target is ETV5 (UniProt P41161).
Test [5] has as its target ELF4 (UniProt Q99607).
In test [6] the target is T3, ETV2 (UniProt O00321).
T3 sequence: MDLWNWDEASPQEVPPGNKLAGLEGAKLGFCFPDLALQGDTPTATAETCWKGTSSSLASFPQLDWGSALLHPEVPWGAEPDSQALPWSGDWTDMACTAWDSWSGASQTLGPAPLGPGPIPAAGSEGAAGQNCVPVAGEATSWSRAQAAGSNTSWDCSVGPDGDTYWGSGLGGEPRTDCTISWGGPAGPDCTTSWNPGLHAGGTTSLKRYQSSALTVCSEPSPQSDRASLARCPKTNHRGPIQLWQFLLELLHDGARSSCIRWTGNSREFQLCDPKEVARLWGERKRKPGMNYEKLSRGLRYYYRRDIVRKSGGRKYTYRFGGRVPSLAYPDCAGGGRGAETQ

Test [7] addresses T4, ETV3L (UniProt Q6ZN32).
T4 sequence: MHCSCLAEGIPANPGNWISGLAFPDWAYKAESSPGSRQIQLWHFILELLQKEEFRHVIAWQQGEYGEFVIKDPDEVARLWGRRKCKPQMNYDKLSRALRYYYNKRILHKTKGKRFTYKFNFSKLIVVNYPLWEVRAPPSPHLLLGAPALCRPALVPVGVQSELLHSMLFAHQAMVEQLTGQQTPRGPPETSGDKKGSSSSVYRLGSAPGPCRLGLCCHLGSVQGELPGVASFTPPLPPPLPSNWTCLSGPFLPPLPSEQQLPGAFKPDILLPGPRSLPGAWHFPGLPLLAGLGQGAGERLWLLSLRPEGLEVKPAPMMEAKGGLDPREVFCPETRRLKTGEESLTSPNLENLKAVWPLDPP

This is a selection; strong and weak results do not stand in their true shares. At the low end of the ranking the order means little.

Take CGGTCA: the binding signal in test [1] is 0.798; in test [2], 0.816; in test [3], 0.91; in test [4], 0.764; in test [5], 0.806; in test [6], 0.94. The binding signal in test [7] was 0.851.

As for CGGTAC, the binding signal in test [1] worked out at 0.969; in test [2], 0.956; in test [4], 0.952; in test [5] it was 0.879; in test [6], 0.822; in test [7], 0.993.

As for GCGCTA, the binding signal turned out to be 0.936 in test [1]; 0.901 in test [2]; 0.884 in test [3]; 0.854 in test [4]; 0.961 in test [5]; 0.945 in test [6]. Also, the binding signal in test [7] was determined as 0.895.

In the case of GGGACC, the binding signal was determined as 0.641 in test [1]; 0.614 in test [2]; 0.693 in test [3]; 0.643 in test [4]; 0.689 in test [5]; 0.647 in test [6]. Further, in test [7], the binding signal is 0.647.

For CCAGGG, the binding signal in test [1] is 0.653; in test [2] it was 0.607; in test [3], 0.565; in test [4] it was 0.607; in test [5], 0.598; in test [6], 0.612. The same sequence gave a binding signal in test [7] of 0.615.

As to GACCCG, the binding signal in test [1] came out at 0.884; in test [2], 0.968; in test [3], 0.807; in test [4], 0.916; in test [5], 0.868; in test [6], 0.772. In test [7], this sequence gave a binding signal of 0.825.

Turning to GGCAGG, the binding signal in test [1] came to 0.628; in test [2] it was 0.614; in test [3], 0.611; in test [4], 0.629; in test [5], 0.55; in test [6], 0.624. Moreover, the binding signal in test [7] worked out at 0.649.

For the sequence GGGTCT, the binding signal in test [1] was determined as 0.858; in test [2], 0.98; in test [3], 0.811; in test [4], 0.857; in test [5] it was 0.867; in test [6], 0.927. The sequence also yielded a binding signal in test [7] of 0.869.

Take CGGGTG: the binding signal in test [1] was 0.646; in test [2], 0.676; in test [3], 0.606; in test [4], 0.737; in test [5] it was 0.705; in test [6], 0.606. The same sequence returned a binding signal in test [7] of 0.633.

Turning to AGTTGA, the binding signal in test [1] amounted to 0.811; in test [2] it was 0.795; in test [3], 0.829; in test [4], 0.754; in test [5], 0.805; in test [6], 0.708. Moreover, the binding signal in test [7] worked out at 0.791.

As for TGCGAG, the binding signal in test [1] is 0.898; in test [2], 0.929; in test [4], 0.917; in test [5], 0.878; in test [6], 0.849; in test [7] it was 0.875.

Turning to AGCGTA, the binding signal in test [1] worked out at 0.918; in test [2], 0.918; in test [4], 0.924; in test [5], 0.94; in test [6], 0.906; in test [7] it was 0.961.

Turning to GTGTGA, the binding signal stood at 0.604 in test [1]; 0.608 in test [2]; 0.592 in test [3]; 0.581 in test [4]; 0.614 in test [5]; 0.596 in test [6]. Further, in test [7], the binding signal was 0.569.

In the case of CAAGGG, the binding signal in test [1] stood at 0.882; in test [2], 0.881; in test [3] it was 0.871; in test [4], 0.821; in test [5] it was 0.956; in test [6], 0.765. The sequence further registered a binding signal in test [7] of 0.926.

Take CAAGTC: the binding signal is 0.881 in test [1]; 0.851 in test [2]; 0.814 in test [3]; 0.795 in test [4]; 0.843 in test [5]; 0.869 in test [6]. Further, the binding signal in test [7] is 0.857.

As for GACTCA, the binding signal in test [1] stood at 1.06; in test [2], 0.929; in test [4], 0.949; in test [5] it was 0.993; in test [6], 0.981; in test [7], 0.9.

For GTCAGA, the binding signal in test [1] stood at 0.63; in test [2], 0.588; in test [3] it was 0.598; in test [4] it was 0.584; in test [5] it was 0.669; in test [6], 0.555. This sequence also had a binding signal in test [7] of 0.637.

For GGGCCG, the binding signal in test [1] was determined as 0.62; in test [2] it was 0.643; in test [3] it was 0.554; in test [4], 0.583; in test [5], 0.654; in test [6], 0.511. In addition, in test [7], the binding signal is 0.63.

As to GCCCGT, the binding signal came out at 0.728 in test [1]; 0.571 in test [2]; 0.701 in test [3]; 0.642 in test [4]; 0.628 in test [5]; 0.638 in test [6]. Further, the binding signal in test [7] was determined as 0.636.

Take AGTGGG: the binding signal was 0.533 in test [1]; 0.638 in test [2]; 0.592 in test [3]; 0.608 in test [4]; 0.552 in test [5]; 0.6 in test [6]. For the same sequence, the binding signal in test [7] came out at 0.604.

Take GGCGAC: the binding signal in test [1] amounted to 0.803; in test [2], 0.801; in test [3], 0.82; in test [4] it was 0.772; in test [5], 0.86; in test [6], 0.828. Moreover, the binding signal in test [7] was determined as 0.899.

The values above are taken from PMC7862700.
